Assay results from PubChem BioAssay AID493014 (National Center for Advancing Translational Sciences (NCATS), 2011).
The whole screen tested about 340,000 compounds, of which about 170 (0.05%) were called active. Inconclusive means that the source gave no clear call. Such entries were picked first, then a sample of the others. Calls come from the whole dose curve; as a rule, active = well fitted inhibition curve with a large enough effect in the signal ratio, with a control signal flat (not every such curve was filed as active); inconclusive = small, poorly fitted or top-dose-only effect, or effect the other way, or a change in a side signal; inactive = flat fitted curve, though single readings scatter; the % refers to the signal ratio. Where the call is inconclusive, the potency comes from a doubtful curve fit.

assay: qHTS Assay to Find Inhibitors of Chronic Active B-Cell Receptor Signaling; conditions: ABC-DLBCL IkBa-CBG/CBR reporter, luminescence ratio (green luciferase fused to IkBa over red control in TMD8 lymphoma cells), 4 h; activity change, negative = inhibition: at 46.1 µM (top of the series) unless noted;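 for activity change, negative = inhibition: plate controls were basal doxycycline-induced cells for no effect and cells given 10 µM MG132 for full effect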
Method in brief: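 Doxycycline induced both beetle luciferases in TMD8 lymphoma cells; IKK-driven degradation limits the IkappaBalpha-fused green signal, while red luminescence normalises for cell number and nonspecific effects. Compounds tested up to 46 uM, 4 hrs.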
Potency is the fitted concentration of half-maximal effect.

| Structure (SMILES) | Potency | activity change, negative = inhibition |
| --- | --- | --- |
| Cc1ccc(-c2nc3ccc(Cl)cc3c(=O)n2O)cc1 | inconclusive: 10 µM [falling, partial curve] |  |
| Nc1nc(=S)c2[nH]cnc2[nH]1 | inconclusive: 0.731 µM [falling, full curve, poor fit] |  |
| Cn1c(=O)[nH]c(=O)c2c1nc(N1CCOCC1)n2CCN1CCOCC1 |  | inconclusive: -1.29% |
| CN(/N=C/c1ccncc1)C1=NCCN1 | inconclusive: 10 µM [falling, partial curve] |  |
| NC(=O)C1CC=CCC1C(=O)OCC(Cl)=C(Cl)Cl (stereo unspecified) |  | inconclusive: -1.31% |
| Cc1cccc(CC(=O)NC2CC(=O)N(c3cccc(F)c3)C2)c1 (stereo unspecified) |  | inactive |
| CCN(CC(=O)Nc1cccc(OC)c1)CC(=O)Nc1ccc(Br)c(C)c1 | inconclusive: 15.8 µM [falling, single point] |  |
| O=C1CC(=C(c2ccccc2)c2ccccc2)C(=O)N1CCCCN1CCN(c2ccccc2)CC1 | inconclusive: 0.00461 µM [rising, full curve, poor fit] |  |
| Fc1ccccc1-c1nc(NCc2ccccc2)c2ccccc2n1 |  | inconclusive: 4.92% |
| Cc1cccc(NC2=C(Cl)C(=O)OC2OC(C)C)c1 (stereo unspecified) |  | inactive |
| O=C(NC(Cc1ccccc1)c1nc2ccccc2[nH]1)C1CC(=O)N(c2ccc3c(c2)OCCO3)C1 (stereo unspecified) |  | inconclusive: 0.512% |
| CCN1C(=O)[C@H]2[C@@H](c3ccc(-c4ccc(Cl)c(Cl)c4)cc3)N3CCCC[C@@]3(C(=O)OC)[C@H]2C1=O |  | inactive |
| O=C(c1ccccc1)N1CCC(c2nc(-c3ccc(S(=O)(=O)N4CCOCC4)cc3)no2)CC1 |  | inconclusive: -1.26% |
| CC(=O)Nc1nc(CCN2C(=O)c3ccccc3C2=O)cs1 |  | inconclusive: -2.22% |
| CC(C)C(=O)Nc1nnc(CCc2ccccc2)s1 |  | inconclusive: 1.68% |
| Cc1ccc(NC(=S)N/C(=N/S(=O)(=O)c2ccccc2)c2ccccc2)cc1 | inconclusive: 5.17 µM [falling, partial curve, poor fit] |  |
| CC1CCc2sc(C(=O)NNC(=O)c3ccncc3)cc2C1 (stereo unspecified) |  | inactive |
| CC(C)(C)N(Cc1ccccc1)C(=O)COC(=O)CCN1C(=O)C2CC=CCC2C1=O (stereo unspecified) |  | inactive |
| COc1ccc(-c2ccc(OC)c([C@H]3[C@H]4C=CC[C@@H](C)[C@@H]4C(=O)N3Cc3ccccc3)c2)cc1C |  | inconclusive: 4.81% |
| COC(=O)c1ccc2c(=O)n(CCCCCC(=O)NCc3ccccn3)c(=O)[nH]c2c1 |  | inconclusive: 18.5% |
| O=C1NCCNC1(c1c[nH]c2ccccc12)C(F)(F)F (stereo unspecified) |  | inconclusive: 18.5% |

A few values from the results shown.
In activity change, negative = inhibition, O=C1NCCNC1(c1c[nH]c2ccccc12)C(F)(F)F (stereo unspecified) has inconclusive: 18.5%
In Potency, O=C1CC(=C(c2ccccc2)c2ccccc2)C(=O)N1CCCCN1CCN(c2ccccc2)CC1 has inconclusive: 0.00461 µM [rising, full curve, poor fit]
